# The full ranking holds about 33,000 sequences; the median of “E-score (-0.5 to 0.5)” is about -0.0059, and the highest 2% start at about 0.26. The list shows a part of the results.
# Target: T1, Cin5 (UniProt P40917)
# T1 sequence: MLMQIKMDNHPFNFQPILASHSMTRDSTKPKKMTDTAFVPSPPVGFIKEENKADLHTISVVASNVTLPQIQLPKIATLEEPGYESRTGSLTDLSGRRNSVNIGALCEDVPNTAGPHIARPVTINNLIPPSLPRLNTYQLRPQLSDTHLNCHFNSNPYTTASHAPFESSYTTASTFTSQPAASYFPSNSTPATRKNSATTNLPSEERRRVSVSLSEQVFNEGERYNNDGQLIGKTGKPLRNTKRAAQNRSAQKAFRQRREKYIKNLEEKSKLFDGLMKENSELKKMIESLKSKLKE
# Assay: PBM E-score (8-mer binding enrichment) (E-score (-0.5 to 0.5)); higher = stronger / more preferred TF binding
# Conditions: protein concentration: 100 nM; construct: GST-full length
# Outline: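 Bound GST-tagged yeast transcription factors, applied at about 100-200 nM to double-stranded universal all-10-mer Agilent arrays, were detected with fluorescent anti-GST. Scans were normalised with masliner. A modified Wilcoxon-Mann-Whitney statistic, the E-score, was assigned to each ungapped eight-base word pooled with its reverse complement by the Universal PBM Analysis Suite.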
row,Sequence,PBM E-score
1,AAACCGAA,0.0262
2,GTTGCTTA,0.338
3,CGAGTTTA,0.0867
4,AACTTTGC,0.064
5,AACATCCG,0.0506
6,TCAGCTGA,0.253
7,ACCATCCG,0.00451
8,ACTTTGCG,0.0978
9,ATGAGCAG,-0.0478
10,ATGCCGGG,-0.199
11,CCTACACA,0.0287
12,ACCCATCG,0.0212
13,AATTATAC,0.208
14,AAAAGAGA,0.0667
15,ACGGTAGA,-0.117
16,CGGATGAG,0.0497
17,AGACAACG,0.144
18,ACGTGTCT,-0.101
19,CCGAGGAA,-0.0167
20,GCCTCGCA,-0.0129
21,AATCCACT,0.0266
22,CTAAGGCC,-0.2
23,CATGTAAG,0.13
24,CACAAGTA,0.164
25,AGAGATCG,-0.0713

row,Sequence,PBM E-score
1,AACCGCTC,-0.0305
2,AGAAGCAA,0.167
3,AGGATTGG,-0.109
4,CCCAACCG,-0.0634
5,ACAATACG,0.05
6,CGACTTCA,-0.0477
7,ACACACTG,0.0336
8,ACCATCGC,0.0726
9,ACTTTTGA,0.0205
10,GGAGAGTA,-0.0903
11,TCTTAGAA,0.0741
12,CACTTATA,0.0564
13,ACTGCAAG,-0.128
14,CCAGAGTA,0.0143
15,CTGCCAGC,-0.211
16,AAGTAGGT,-0.0742
17,GTGTAAAA,0.0726
18,ATTTTAAA,0.184
19,CTCCTATC,-0.0307
20,ATGCGGGA,0.0954
21,GGTCTATA,0.0119
22,AGTGGGCC,-0.322
23,CTTGCCAC,-0.165
24,GTTGGGCA,-0.00142
25,AGTGCTTA,0.199

# Random excerpt: six entries already listed.
row,Sequence,PBM E-score
12,CACTTATA,0.0564
9,ACTTTTGA,0.0205
2,AGAAGCAA,0.167
6,CGACTTCA,-0.0477
23,CTTGCCAC,-0.165
7,ACACACTG,0.0336

# Next results.

row,Sequence,PBM E-score
1,GGTATTGA,0.0194
2,GCCTTTAC,-0.0984
3,AATACACT,0.0899
4,CCCTGCCA,-0.0277
5,CCAGGCAG,-0.248
6,AAATCGTT,0.143
7,ACAAATAG,0.0996
8,CACCCCAA,0.111
9,CCCGTTTA,0.069
10,ACGTTTTA,0.0371
11,GACTATAC,0.124
12,TACCTTAA,-0.0244
13,CAGTCAGA,-0.0354
14,ACAGAGCT,-0.259
15,CCGGGGGC,-0.345
16,CCGTATAA,0.0713
17,ATTAAGAA,-0.051
18,ACAGAGTA,-0.0123
19,GGGTACCA,-0.183
20,ATCGCCTA,-0.0335
21,GAGAAATA,0.158
22,AATAAGGC,0.0645
23,ATCCAGAA,0.00952
24,GGACCTCC,-0.271
25,ATTCTCCC,-0.0109

row,Sequence,PBM E-score
1,CAGTCTGA,-0.0198
2,CGGTCGAA,-0.0613
3,GCATTAGC,-0.0498
4,CTTTGAAC,-0.129
5,AAGTCAAG,-0.0178
6,CCATTCCG,0.0227
7,ATGTTCTG,-0.0006
8,TCAAACAA,0.0761
9,CACTTCAC,-0.0856
10,AGCGCAAC,0.0558
11,CGGATTGC,0.105
12,AATCTTAT,0.104
13,AACATGTA,0.216
14,TCTACAAA,-0.0653
15,AATGTAGT,0.125
16,ACTTGAGA,0.0805
17,ACCTTGGG,0.101
18,AGGTGGCG,-0.137
19,TGTGTGAA,0.0241
20,ACTTTCCG,0.157
21,AGCAATAC,0.189
22,ATCAATTA,0.317
23,CTAAGATA,0.168
24,CACCTCTC,-0.114
25,ATGTGTCG,0.125

row,Sequence,PBM E-score
1,CAGTTCGG,-0.0252
2,CGTGAGCC,-0.0209
3,GAGCCGGC,-0.137
4,TCATGAAA,0.0973
5,AGTTTATG,-0.00424
6,AACGAAAG,0.014
7,GGGGTGGA,-0.0549
8,CATTGGTC,-0.0877
9,CACAAATC,0.0238
10,AAAGTTCC,-0.117
11,GTTTTCGA,-0.0355
12,CAACAGTA,0.0302
13,AATATTCA,0.24
14,AAGTCCCA,-0.177
15,CTGAGTGA,0.195
16,AGTAGATC,-0.0135
17,ATTCCCCG,0.151
18,CATTTGAG,0.0705
19,CACTGCTG,-0.0583
20,AATTTCAT,0.062
21,CGGGACCA,-0.163
22,ACCGACAA,0.0286
23,AAAAAGCG,0.0497
24,GGGGCTCA,-0.285
25,AAAGAAAT,0.241

row,Sequence,PBM E-score
1,CACTTACA,0.127
2,CCCTATCC,-0.137
3,GCTGTCGA,-0.0741
4,GTCGGAAA,0.213
5,GTGTACTA,0.0665
6,GCGCCGCC,-0.00584
7,ATTCTACG,0.0916
8,GTAAGGTA,0.0728
9,ACAGGTCA,-0.106
10,CTCGGGTA,-0.141
11,ACAGCGCC,-0.0832
12,AAGACCTA,-0.111
13,CGCCCGTC,-0.0048
14,AATACGGG,-0.0914
15,GAGTTCCC,-0.18
16,AGAGTATA,0.0252
17,ATGAGCCG,-0.0886
18,ACCTTCTG,0.112
19,AGAGGAAT,0.0108
20,GATGCGTA,0.0728
21,CAGTTCTC,-0.0187
22,ATGCCCTG,-0.12
23,CAAGCTTG,0.0243
24,ACATAATC,0.445
25,AGACTTTC,-0.0091

row,Sequence,PBM E-score
1,CTATCTCA,-0.00021
2,AAACCCCC,-0.466
3,GCGTATAA,0.133
4,GTAGACAA,0.12
5,CATATTCG,-0.0012
6,AGTTTGTC,0.0207
7,ACGGTATG,0.0664
8,AGTTACCG,0.02
9,ATCGCTAC,-0.00633
10,AAATCAAA,0.175
11,TGAACCAA,0.145
12,CTGATCCA,0.0973
13,ACATCAAG,0.155
14,ATCTATAG,0.0365
15,AACTCCGG,0.0824
16,GAGTGCTA,0.0563
17,CGCGCTCC,0.0914
18,GCGGGTCC,-0.257
19,CGTCCTTA,-0.216
20,GCTATTCC,-0.051
21,AACAAGCC,-0.13
22,AAAGAGCG,0.0467

# From the supplement of paper PMC3334620
